Measurements: patent US20030180396A1, “Method of effecting phosphorylation in eucaryotic cells using thiamine triphosphate” (INSTITUT PASTEUR, priority 1999, published 2003)

Test: Phosphoamino acid analysis of phosphorylated 43K rapsyn
Design: species or system Torpedo marmorata
Conditions: FIGS. 6, 7

Row | Molecule | Paa analysis
1 | 43K-rapsyn/ATP: 43K rapsyn phosphorylated with ^32P-ATP (protein, UniProt Q13702 2-412, looked up, 32P-phosphorylated (ATP), 43K rapsyn phosphorylated with ^32P-ATP) 43 kDa receptor-associated …: GQDQTKQQIEKGLQLYQSNQTEKALQVWTKVLEKSSDLMGRFRVLGCLVTAHSEMGRYKEMLKFAVVQIDTARELEDADFLLESYLNLARSNEKLCEFHKTISYCKTCLGLPGTRAGAQLGGQVSLSMGNAFLGLSVFQKALESFEKALRYAHNNDDAMLECRVCCSLGSFYAQVKDYEKALFFPCKAAELVNNYGKGWSLKYRAMSQYHMAVAYRLLGRLGSAMECCEESMKIALQHGDRPLQALCLLCFADIHRSRGDLETAFPRYDSAMSIMTEIGNRLGQVQALLGVAKCWVARKALDKALDAIERAQDLAEEVGNKLSQLKLHCLSESIYRSKGLQRELRAHVVRFHECVEETELYCGLCGESIGEKNSRLQALPCSHIFHLRCLQNNGTRSCPNCRRSSMKPGFV | P-Ser
2 | 43K-rapsyn/TTP: 43K rapsyn phosphorylated with ^32P-TTP (protein, UniProt Q13702 2-412, looked up, 32P-phosphorylated (TTP), 43K rapsyn phosphorylated with ^32P-TTP) 43 kDa receptor-associated …: GQDQTKQQIEKGLQLYQSNQTEKALQVWTKVLEKSSDLMGRFRVLGCLVTAHSEMGRYKEMLKFAVVQIDTARELEDADFLLESYLNLARSNEKLCEFHKTISYCKTCLGLPGTRAGAQLGGQVSLSMGNAFLGLSVFQKALESFEKALRYAHNNDDAMLECRVCCSLGSFYAQVKDYEKALFFPCKAAELVNNYGKGWSLKYRAMSQYHMAVAYRLLGRLGSAMECCEESMKIALQHGDRPLQALCLLCFADIHRSRGDLETAFPRYDSAMSIMTEIGNRLGQVQALLGVAKCWVARKALDKALDAIERAQDLAEEVGNKLSQLKLHCLSESIYRSKGLQRELRAHVVRFHECVEETELYCGLCGESIGEKNSRLQALPCSHIFHLRCLQNNGTRSCPNCRRSSMKPGFV | P-His
